Data on 1 molecule can be found in patent US20210213010A1, “TLR7/8 AGONISTS AND LIPOSOME COMPOSITIONS” (Torque Therapeutics, Inc., priority 2018, published 2021).

The subject of this data set is human CD3 or mouse PMEL CD8 T cells. The experiment in a line: Drug loading onto human CD3 and mouse PMEL CD8 T cells via liposomes (HPLC, Example 82). It is filed as cell-based. The conditions noted are these: antibody versus Arg3 mediated loading.

Take `CCNCc1nc2c(N)nc3ccccc3c2n1CC(C)(C)O` [Gardiquimod, reference compound]: the “Levels of loading across 2 different species, fold of each other” value is ≤ 2 fold.
